Test results from publication PMC10787542.
No constants are given. Whether binding was seen depends on the method and setting. Binding seen in cells or lysates may run through a third protein. These calls come from enrichment with a bait or labelling near it, and not all partners need be listed.

Target: YAP-BirA*-HA (UniProt P46937)
Experiment: proximity labelling; Bio-ID: HEK293T cells stably expressing YAP-BirA*-HA, 50 µM biotin for 24 h; biotinylated proteins captured on streptavidin beads; mass spectrometry

binding | Binder
binds | AMOTL1 (protein, UniProt Q8IY63 1-956) MWRAKLRRGTCEPAVKGSPSACYSPSSPVQVLEDSTYFSPDFQLYSGRHETSALTVEATSSIREKVVEDPLCNFHSPNFLRISEVEMRGSEDAAAGTVLQRLIQEQLRYGTPTENMNLLAIQHQATGSAGPAHPTNNFSSTENLTQEDPQMVYQSARQEPQGQEHQVDNTVMEKQVRSTQPQQNNEELPTYEEAKAQSQFFRGQQQQQQQQGAVGHGYYMAGGTSQKSRTEGRPTVNRANSGQAHKDEALKELKQGHVRSLSERIMQLSLERNGAKQHLPGSGNGKGFKVGGGPSPAQPAGKVLDPRGPPPEYPFKTKQMMSPVSKTQEHGLFYGDQHPGMLHEMVKPYPAPQPVRTDVAVLRYQPPPEYGVTSRPCQLPFPSTMQQHSPMSSQTSSASGPLHSVSLPLPLPMALGAPQPPPAASPSQQLGPDAFAIVERAQQMVEILTEENRVLHQELQGYYDNADKLHKFEKELQRISEAYESLVKSTTKRESLDKAMRNKLEGEIRRLHDFNRDLRDRLETANRQLSSREYEGHEDKAAEGHYASQNKEFLKEKEKLEMELAAVRTASEDHRRHIEILDQALSNAQARVIKLEEELREKQAYVEKVEKLQQALTQLQSACEKREQMERRLRTWLERELDALRTQQKHGNGQPANMPEYNAPALLELVREKEERILALEADMTKWEQKYLEESTIRHFAMNAAATAAAERDTTIINHSRNGSYGESSLEAHIWQEEEEVVQANRRCQDMEYTIKNLHAKIIEKDAMIKVLQQRSRKDAGKTDSSSLRPARSVPSIAAATGTHSRQTSLTSSQLAEEKKEEKTWKGSIGLLLGKEHHEHASAPLLPPPPTSALSSIASTTAASSAHAKTGSKDSSTQTDKSAELFWPSMASLPSRGRLSTTPAHSPVLKHPAAKGTAEKLENSPGHGKSPDHRGRVSSLLHKPEFPDGEMMEVLI
binds | chromatin accessibility complex subunit 1 (CHRAC1) (protein, UniProt Q9NRG0 1-131) MADVVVGKDKGGEQRLISLPLSRIRVIMKSSPEVSSINQEALVLTAKATELFVQCLATYSYRHGSGKEKKVLTYSDLANTAQQSETFQFLADILPKKILASKYLKMLKEEKREEDEENDNDNESDHDEADS
